To fix the notation:
T1: BD-Atg9 (S. cerevisiae) (UniProt Q12142)
T1 sequence: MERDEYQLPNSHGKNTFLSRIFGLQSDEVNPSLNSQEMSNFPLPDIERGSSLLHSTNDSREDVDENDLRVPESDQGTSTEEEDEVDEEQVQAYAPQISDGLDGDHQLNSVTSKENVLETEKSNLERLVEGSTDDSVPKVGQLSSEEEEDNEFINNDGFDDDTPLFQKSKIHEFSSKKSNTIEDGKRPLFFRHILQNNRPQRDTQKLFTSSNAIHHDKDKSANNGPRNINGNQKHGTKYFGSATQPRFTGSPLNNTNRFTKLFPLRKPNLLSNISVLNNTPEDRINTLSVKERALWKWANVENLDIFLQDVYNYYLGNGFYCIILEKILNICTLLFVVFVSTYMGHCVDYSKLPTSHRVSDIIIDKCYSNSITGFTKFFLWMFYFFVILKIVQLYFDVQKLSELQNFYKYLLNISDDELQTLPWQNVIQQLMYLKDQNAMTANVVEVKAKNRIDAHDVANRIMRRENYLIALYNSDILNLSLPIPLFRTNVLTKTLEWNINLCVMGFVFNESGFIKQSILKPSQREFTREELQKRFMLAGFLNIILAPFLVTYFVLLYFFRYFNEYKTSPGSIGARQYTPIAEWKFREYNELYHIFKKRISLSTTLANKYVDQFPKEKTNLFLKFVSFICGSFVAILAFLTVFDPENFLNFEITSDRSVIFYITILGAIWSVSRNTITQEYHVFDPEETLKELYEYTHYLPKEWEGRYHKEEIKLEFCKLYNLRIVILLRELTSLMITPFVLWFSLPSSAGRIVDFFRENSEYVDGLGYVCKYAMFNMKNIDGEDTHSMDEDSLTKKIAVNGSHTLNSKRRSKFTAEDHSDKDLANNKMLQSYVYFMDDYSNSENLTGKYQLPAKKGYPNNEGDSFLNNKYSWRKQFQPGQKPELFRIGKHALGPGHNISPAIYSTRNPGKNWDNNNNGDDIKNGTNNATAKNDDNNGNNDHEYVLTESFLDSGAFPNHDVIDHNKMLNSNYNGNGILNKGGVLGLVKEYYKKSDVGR

T2: Atg9-PA (S. cerevisiae) (UniProt Q12142)
T2 sequence: T1 sequence

B1: AD-Atg11 (full length, wild type) (protein, UniProt Q12527 1-1178)
chain: MADADEYSTAPTQQEITPLQTTATIINAISGECITTNVDFFVSLDKFKQFIARKWKIPPDQLLILLPYGNKLKPSMFKELLINRSFTLNDFYVYDRRLFSLVSKPTPTNLLTSKDSNPMNSPNSNDLTETLEYLIKNSHISQYQGSDTIMIKPMPSPLEDADVDLSRLNYHSVTSLLTTNLGWLSALEIDVHYFKSLIPDIIAHIKRIFDGLTVCSQYLKLYCFDVESLYNSNVQFLNQLVDNGMTSKWEKCFNDTLSKLTALEGDSLQKFINIESLLENEKSVKILNHSINGKLNKIKREIDENASFRDIITVNIDRLRQMFTPNESKFELEDQMAESFEVLVSEMRTRSRNVLDKEEEEFNSQEFLKSMNVMLEKDKKESVKTLFTISQALYSQIGELIDLKKSLQKHAVAILGNIAFTQMEILGIKRLLLNECNKDLELYKKYEVEFAQVEDLPLIYGLYLIEKYRRLSWFQQILSFISNFNQDLELFKQNELRTRNKWVKNFGSIATVFCEDLLSSSDFKRLNEYHSHTSPPNEDEEDENENSIANYRQDLVKVSQAIDNYMTQIKETDVSEPIIDLLSKTLFETKRFHIIYSNFKNNNNNSSNGNSISPEGSIALKSDDVVKGYKTRIKKLESLLHEFQYSDIGHWPQGVLNTHLKPFRGSATSINKKKFLGASVLLEPANISEVNIDSVSQANNHQIQELESNVDDLLHQLQLLKEENNRKSMQISEMGKKISDLEVEKTAYRETLTNLNQELARLTNEEQSHRTEIFTLNASFKKQLNDIISQDNEKIEKLTGDYDDVSKSRERLQMDLDESNKKHEQEVNLLKADIERLGKQIVTSEKSYAETNSSSMEKGEKFETIPLAEDPGRENQISAYTQTLQDRIFDIISTNIFILENIGLLLTFDNNNNIQIRRVKGLKKGTAQSNILDESTQMLDAHDNSLIKSPVFQKLKDEYELIKSVANGSEKDTQQSIFLGNITQLYDNKLYEVAVIRRFKDIETLAKKLTKENKIKRTLLERFQREKVTLRNFQIGDLALFLPTRENVNSVGSMSSSTSSLSSSFSSVDLSTPPPLDAMSIQSSPSVIHSNVINQASISGRDKNKLMRPWAAFTAFEESTRYFLKDEKGLTKGKEWFVGRIVTLEHFVADSPSNNPFRLPKGSVWFQVTAVVVSYQGV
B2: AD-Atg11 a/d-4 (I562E/Y565E) (protein, UniProt Q12527 1-1178)
chain: B1 chain with I562E, Y565E
B3: AD-Atg11 Y565Q (protein, UniProt Q12527 1-1178)
chain: B1 chain with Y565Q
B4: AD-Atg11 Y565A (protein, UniProt Q12527 1-1178)
chain: B1 chain with Y565A
B5: AD-Atg11 Y565E (protein, UniProt Q12527 1-1178)
chain: B1 chain with Y565E
B6: GFP-Atg11ΔCC2 (protein, UniProt Q12527)
chain: MADADEYSTAPTQQEITPLQTTATIINAISGECITTNVDFFVSLDKFKQFIARKWKIPPDQLLILLPYGNKLKPSMFKELLINRSFTLNDFYVYDRRLFSLVSKPTPTNLLTSKDSNPMNSPNSNDLTETLEYLIKNSHISQYQGSDTIMIKPMPSPLEDADVDLSRLNYHSVTSLLTTNLGWLSALEIDVHYFKSLIPDIIAHIKRIFDGLTVCSQYLKLYCFDVESLYNSNVQFLNQLVDNGMTSKWEKCFNDTLSKLTALEGDSLQKFINIESLLENEKSVKILNHSINGKLNKIKREIDENASFRDIITVNIDRLRQMFTPNESKFELEDQMAESFEVLVSEMRTRSRNVLDKEEEEFNSQEFLKSMNVMLEKDKKESVKTLFTISQALYSQIGELIDLKKSLQKHAVAILGNIAFTQMEILGIKRLLLNECNKDLELYKKYEVEFAQVEDLPLIYGLYLIEKYRRLSWFQQILSFISNFNQDLELFKQNELRTRNKWVKNFGSIATVFCEDLLSSSDFKRLNEYHSHTSPPIIDLLSKTLFETKRFHIIYSNFKNNNNNSSNGNSISPEGSIALKSDDVVKGYKTRIKKLESLLHEFQYSDIGHWPQGVLNTHLKPFRGSATSINKKKFLGASVLLEPANISEVNIDSVSQANNHQIQELESNVDDLLHQLQLLKEENNRKSMQISEMGKKISDLEVEKTAYRETLTNLNQELARLTNEEQSHRTEIFTLNASFKKQLNDIISQDNEKIEKLTGDYDDVSKSRERLQMDLDESNKKHEQEVNLLKADIERLGKQIVTSEKSYAETNSSSMEKGEKFETIPLAEDPGRENQISAYTQTLQDRIFDIISTNIFILENIGLLLTFDNNNNIQIRRVKGLKKGTAQSNILDESTQMLDAHDNSLIKSPVFQKLKDEYELIKSVANGSEKDTQQSIFLGNITQLYDNKLYEVAVIRRFKDIETLAKKLTKENKIKRTLLERFQREKVTLRNFQIGDLALFLPTRENVNSVGSMSSSTSSLSSSFSSVDLSTPPPLDAMSIQSSPSVIHSNVINQASISGRDKNKLMRPWAAFTAFEESTRYFLKDEKGLTKGKEWFVGRIVTLEHFVADSPSNNPFRLPKGSVWFQVTAVVVSYQGV
B7: GFP-Atg11^Y565E (protein, UniProt Q12527 1-1178)
chain: B1 chain with Y565E

Numbering of substitutions follows the chain as printed. Names may count otherwise. These are yes or no findings as the source states them, for the method shown. For some of these results: Binding seen in cells or lysates may run through a third protein. Where a sequence is shown, tags or fusion partners need not be part of it. Some entries that bind do so weakly or less than the wild type.

In the first test the target is T1, BD-Atg9 (S. cerevisiae). As to the kind of experiment: two-hybrid; BD-Atg9 (bait) with AD-Atg11 and mutants (prey) in the MKO strain; growth on SMD -ura, -leu, -his + 1 mM 3AT plates.
Consider B1, for which the binding entry is listed as “binds”.
Same read-out and setting: the value for B2 was “no binding”; that for B3 was “no binding”.
On to B4, for which the binding result is “no binding”.
As to B5, the binding result is reported as “no binding”.

The target in the next test is T2, Atg9-PA (S. cerevisiae). As to the kind of experiment: co-IP; PA-tagged bait (Atg9-PA or PA-Atg19) precipitated on IgG-Sepharose from spheroplast lysate; proteins overexpressed with a CUP1 promoter in an atg11∆ strain; GFP-Atg11 detected with anti-GFP.
With B6, the binding entry is “no binding”.
In the case of B7, the binding entry is recorded as “no binding”.

The record behind these values is publication PMC8805157 (2021).
